From the supplement of paper PMC10849652
Some of the results follow.

By UniProt entry, the sequences of proteins in these tests, tags left out. Where a name states a change or a piece, a line headed by the entry shows the natural chain unless it says otherwise.
UniProt Q70EL1: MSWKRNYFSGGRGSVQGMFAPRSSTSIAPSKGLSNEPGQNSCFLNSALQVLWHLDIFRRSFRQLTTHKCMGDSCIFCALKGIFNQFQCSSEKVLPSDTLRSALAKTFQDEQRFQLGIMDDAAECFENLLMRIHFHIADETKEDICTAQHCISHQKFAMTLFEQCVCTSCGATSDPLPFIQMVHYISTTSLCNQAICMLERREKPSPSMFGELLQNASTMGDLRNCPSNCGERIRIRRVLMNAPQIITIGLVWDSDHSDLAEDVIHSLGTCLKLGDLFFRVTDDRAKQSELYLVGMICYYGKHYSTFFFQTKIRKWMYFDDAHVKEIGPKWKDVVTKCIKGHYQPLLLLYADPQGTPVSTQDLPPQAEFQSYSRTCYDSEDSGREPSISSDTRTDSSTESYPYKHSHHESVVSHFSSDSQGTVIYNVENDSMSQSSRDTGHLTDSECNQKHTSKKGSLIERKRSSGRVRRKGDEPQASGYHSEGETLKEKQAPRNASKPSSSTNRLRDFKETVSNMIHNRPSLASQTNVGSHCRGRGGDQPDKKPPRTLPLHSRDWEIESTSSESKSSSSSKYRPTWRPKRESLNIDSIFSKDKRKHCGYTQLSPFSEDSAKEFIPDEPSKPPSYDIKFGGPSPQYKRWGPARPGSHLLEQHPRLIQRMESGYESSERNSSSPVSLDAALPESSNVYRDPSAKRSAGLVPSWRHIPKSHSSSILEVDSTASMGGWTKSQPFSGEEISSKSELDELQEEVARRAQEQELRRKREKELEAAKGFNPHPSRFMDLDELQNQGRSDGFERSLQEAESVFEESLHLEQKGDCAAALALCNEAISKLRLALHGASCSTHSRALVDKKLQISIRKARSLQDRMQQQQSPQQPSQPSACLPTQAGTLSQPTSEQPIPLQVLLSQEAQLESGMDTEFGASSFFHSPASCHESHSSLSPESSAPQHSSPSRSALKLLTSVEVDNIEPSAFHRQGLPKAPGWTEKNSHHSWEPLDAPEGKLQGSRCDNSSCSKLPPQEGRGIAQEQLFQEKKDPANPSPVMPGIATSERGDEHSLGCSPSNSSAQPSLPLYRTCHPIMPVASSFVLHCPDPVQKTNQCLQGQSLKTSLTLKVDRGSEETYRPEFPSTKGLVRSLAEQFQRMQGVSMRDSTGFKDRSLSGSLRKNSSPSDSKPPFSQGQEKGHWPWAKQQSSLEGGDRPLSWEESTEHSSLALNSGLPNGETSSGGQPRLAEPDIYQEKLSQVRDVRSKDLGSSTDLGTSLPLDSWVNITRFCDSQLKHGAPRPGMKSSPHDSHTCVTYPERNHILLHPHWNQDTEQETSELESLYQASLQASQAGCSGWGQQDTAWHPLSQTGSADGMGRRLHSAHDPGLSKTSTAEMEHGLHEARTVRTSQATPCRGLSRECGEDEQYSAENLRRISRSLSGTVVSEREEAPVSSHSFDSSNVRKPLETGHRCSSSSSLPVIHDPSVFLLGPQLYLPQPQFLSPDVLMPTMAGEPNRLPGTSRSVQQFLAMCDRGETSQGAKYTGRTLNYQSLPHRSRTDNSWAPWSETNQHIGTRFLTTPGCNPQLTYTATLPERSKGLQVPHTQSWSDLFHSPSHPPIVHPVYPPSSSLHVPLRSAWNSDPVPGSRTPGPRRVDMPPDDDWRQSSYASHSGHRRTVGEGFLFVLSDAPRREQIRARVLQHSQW
UniProt Q9H347: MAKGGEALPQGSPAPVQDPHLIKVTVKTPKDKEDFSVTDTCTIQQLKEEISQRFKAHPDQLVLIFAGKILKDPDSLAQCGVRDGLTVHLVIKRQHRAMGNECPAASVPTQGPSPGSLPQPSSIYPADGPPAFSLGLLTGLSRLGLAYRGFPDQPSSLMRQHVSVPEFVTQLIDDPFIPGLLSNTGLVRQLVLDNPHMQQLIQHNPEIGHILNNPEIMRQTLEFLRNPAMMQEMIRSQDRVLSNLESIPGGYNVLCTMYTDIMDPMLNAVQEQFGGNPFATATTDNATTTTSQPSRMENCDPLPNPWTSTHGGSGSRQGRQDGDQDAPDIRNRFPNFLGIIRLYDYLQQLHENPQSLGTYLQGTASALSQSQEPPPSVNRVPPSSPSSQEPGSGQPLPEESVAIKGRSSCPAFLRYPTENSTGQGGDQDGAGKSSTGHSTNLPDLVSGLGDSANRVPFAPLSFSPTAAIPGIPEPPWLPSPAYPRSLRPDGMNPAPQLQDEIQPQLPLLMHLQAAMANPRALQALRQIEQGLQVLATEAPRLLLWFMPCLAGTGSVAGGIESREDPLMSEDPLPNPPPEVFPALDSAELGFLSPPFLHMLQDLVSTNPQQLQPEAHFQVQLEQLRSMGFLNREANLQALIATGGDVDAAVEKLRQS
UniProt Q9BTM9: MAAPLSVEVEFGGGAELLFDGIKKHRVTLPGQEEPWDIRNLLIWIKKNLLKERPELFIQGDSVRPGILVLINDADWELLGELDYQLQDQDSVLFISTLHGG
UniProt Q9Y5T5, whole entry, looked up: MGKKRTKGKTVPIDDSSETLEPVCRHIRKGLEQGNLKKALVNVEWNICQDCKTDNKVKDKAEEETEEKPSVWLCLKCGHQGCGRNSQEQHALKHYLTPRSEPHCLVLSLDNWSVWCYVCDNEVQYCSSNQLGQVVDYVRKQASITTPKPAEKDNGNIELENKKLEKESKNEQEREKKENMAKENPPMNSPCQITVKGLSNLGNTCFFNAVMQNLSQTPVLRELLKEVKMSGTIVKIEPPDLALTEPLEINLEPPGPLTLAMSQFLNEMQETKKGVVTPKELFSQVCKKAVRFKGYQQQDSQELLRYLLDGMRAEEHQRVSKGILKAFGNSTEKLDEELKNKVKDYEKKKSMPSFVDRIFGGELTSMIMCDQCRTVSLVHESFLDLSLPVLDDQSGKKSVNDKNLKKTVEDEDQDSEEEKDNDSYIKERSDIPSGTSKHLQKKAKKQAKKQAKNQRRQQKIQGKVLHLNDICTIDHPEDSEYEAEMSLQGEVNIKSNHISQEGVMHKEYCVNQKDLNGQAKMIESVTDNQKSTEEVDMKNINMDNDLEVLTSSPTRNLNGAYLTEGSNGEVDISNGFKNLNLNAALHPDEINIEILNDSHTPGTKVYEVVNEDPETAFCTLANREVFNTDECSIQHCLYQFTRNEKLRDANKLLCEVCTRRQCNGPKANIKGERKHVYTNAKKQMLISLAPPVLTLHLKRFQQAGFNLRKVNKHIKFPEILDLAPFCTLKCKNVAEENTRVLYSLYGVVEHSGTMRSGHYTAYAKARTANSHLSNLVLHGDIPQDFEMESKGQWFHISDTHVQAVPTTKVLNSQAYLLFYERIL
UniProt Q8IZJ1, whole entry, looked up: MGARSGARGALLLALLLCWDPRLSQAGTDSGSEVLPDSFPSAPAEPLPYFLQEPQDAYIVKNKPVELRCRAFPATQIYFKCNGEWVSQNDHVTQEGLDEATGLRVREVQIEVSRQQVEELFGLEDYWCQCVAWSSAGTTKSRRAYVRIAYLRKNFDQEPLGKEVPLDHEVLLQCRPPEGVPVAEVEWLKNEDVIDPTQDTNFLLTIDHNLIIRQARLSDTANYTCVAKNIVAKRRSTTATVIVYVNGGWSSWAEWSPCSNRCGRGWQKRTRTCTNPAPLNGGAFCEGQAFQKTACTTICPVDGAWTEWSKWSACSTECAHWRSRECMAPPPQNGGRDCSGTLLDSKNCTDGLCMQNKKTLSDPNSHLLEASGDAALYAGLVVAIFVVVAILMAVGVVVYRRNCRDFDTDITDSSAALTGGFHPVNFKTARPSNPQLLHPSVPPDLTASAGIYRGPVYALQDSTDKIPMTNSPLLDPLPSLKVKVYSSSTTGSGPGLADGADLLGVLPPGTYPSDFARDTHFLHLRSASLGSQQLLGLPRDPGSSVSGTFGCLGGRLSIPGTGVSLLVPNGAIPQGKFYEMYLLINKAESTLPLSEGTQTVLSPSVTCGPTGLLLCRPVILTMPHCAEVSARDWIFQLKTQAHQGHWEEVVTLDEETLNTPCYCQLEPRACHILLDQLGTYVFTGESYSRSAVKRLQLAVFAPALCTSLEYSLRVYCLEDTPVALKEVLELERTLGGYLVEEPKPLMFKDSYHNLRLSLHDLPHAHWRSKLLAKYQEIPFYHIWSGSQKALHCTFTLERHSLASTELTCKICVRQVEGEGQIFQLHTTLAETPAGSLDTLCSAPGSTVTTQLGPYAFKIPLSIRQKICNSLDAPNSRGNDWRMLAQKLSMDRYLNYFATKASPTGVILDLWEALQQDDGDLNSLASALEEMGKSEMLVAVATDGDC
UniProt Q8TEY7: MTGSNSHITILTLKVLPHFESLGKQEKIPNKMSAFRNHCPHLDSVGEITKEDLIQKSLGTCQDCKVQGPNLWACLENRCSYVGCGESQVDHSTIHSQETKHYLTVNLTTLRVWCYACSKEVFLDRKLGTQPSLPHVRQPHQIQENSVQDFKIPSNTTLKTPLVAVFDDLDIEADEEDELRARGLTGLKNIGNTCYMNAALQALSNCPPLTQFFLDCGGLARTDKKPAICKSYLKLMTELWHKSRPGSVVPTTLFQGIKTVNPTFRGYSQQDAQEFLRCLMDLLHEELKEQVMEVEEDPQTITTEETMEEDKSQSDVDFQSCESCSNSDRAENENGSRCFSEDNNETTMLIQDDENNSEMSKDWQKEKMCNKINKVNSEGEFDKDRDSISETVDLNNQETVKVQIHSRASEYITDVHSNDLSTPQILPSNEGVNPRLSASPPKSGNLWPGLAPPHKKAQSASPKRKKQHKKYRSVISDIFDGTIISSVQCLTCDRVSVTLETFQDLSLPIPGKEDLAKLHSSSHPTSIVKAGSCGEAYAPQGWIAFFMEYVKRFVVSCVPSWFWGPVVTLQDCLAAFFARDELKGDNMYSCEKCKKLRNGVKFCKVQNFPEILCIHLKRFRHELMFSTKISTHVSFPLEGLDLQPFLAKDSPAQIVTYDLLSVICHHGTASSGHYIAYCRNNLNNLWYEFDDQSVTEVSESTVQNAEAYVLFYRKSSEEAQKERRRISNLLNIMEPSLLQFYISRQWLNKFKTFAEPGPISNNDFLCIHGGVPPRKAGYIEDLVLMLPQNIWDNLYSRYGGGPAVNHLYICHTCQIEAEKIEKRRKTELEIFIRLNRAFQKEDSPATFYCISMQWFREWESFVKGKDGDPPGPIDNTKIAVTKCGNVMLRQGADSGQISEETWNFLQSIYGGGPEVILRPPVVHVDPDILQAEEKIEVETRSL
UniProt Q9C0B0: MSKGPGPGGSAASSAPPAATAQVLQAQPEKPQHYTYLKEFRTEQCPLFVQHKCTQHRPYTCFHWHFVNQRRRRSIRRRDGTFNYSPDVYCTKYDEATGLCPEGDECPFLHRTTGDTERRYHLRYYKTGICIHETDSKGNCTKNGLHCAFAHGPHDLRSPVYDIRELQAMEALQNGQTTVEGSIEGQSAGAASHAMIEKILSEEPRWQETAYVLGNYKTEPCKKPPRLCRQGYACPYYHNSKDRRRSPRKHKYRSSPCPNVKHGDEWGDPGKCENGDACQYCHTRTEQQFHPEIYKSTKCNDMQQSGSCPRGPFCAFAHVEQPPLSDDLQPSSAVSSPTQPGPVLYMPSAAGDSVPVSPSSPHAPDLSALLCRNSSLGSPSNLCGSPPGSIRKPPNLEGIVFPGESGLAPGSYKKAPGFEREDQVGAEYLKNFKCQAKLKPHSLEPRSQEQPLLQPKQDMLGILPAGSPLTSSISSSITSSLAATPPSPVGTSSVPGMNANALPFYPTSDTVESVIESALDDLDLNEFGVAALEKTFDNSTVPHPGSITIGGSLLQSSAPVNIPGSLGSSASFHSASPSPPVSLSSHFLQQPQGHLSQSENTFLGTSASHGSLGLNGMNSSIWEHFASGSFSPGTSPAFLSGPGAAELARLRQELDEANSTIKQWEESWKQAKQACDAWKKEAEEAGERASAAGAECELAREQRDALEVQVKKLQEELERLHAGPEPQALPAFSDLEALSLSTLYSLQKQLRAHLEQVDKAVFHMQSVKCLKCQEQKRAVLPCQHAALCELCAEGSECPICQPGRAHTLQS
UniProt P61960, whole entry, looked up: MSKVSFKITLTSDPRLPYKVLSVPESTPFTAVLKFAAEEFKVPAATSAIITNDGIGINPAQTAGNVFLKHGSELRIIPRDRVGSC
UniProt Q9UPT9: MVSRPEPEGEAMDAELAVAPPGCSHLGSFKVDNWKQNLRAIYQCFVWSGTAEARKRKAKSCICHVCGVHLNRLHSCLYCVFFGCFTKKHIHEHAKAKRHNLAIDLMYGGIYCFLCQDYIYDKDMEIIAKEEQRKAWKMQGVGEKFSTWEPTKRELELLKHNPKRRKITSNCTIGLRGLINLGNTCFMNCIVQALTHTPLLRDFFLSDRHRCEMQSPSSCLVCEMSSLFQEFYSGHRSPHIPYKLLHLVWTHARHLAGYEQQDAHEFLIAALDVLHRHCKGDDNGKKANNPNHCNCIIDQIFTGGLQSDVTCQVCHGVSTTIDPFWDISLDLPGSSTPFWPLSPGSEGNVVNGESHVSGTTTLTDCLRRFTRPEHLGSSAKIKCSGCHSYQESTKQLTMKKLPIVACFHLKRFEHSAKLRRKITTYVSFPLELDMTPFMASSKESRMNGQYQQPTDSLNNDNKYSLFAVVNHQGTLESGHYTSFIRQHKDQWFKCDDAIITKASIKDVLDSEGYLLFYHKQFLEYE

The targets below were run with CCCS(=O)(=O)Nc1ccc(F)c(C(=O)c2c[nH]c3ncc(-c4ccc(Cl)cc4)cc23)c1F [vemurafenib] (assay: log2 fold change, soluble protein after heating vs DMSO (PISA); higher = thermal stabilisation; K562 cells, 10 uM, 30 min; active = over 0.2 and 3.5 SD of the protein, either way, in both replicates (recomputed)).
Outline: (§1)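 K562 cells at 2×10^6 cells/mL were treated for 30 min with 10 μM compound, and aliquots were heated for 3 min over 48°C-58°C before pooling. Extraction used PBS with 0.5% NP-40 at 4°C, and soluble protein was the supernatant after 21,000xg for 90 min, measured by TMTpro 16plex LC-MS/MS with channel sums equalised. Thermal stability values, relative to control samples and from duplicates, are log2 fold changes.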

log2 fold change, inactive:
VASN (UniProt Q6EMK4) -0.13
USP12 (UniProt O75317) -0.079
USP54 (UniProt Q70EL1) 0.099
UBQLN3 (UniProt Q9H347) -0.045
USP1 (UniProt O94782) 0.032
URM1 isoform 2 (UniProt Q9BTM9) 0.302
USP16 (UniProt Q9Y5T5) 0.008
UNC5B (UniProt Q8IZJ1) -0.081
UBN2 (UniProt Q6ZU65) 0.043
VAV1 (UniProt P15498) 0.111
USP33 (UniProt Q8TEY7) 0.029
UNG (UniProt P13051) 0.014
USP46 (UniProt P62068) -0.035
UNK (UniProt Q9C0B0) -0.077
UBR3 isoform 4 (UniProt Q6ZT12) -0.044
VCPIP1 (UniProt Q96JH7) -0.535
USB1 (UniProt Q9BQ65) 0.058
UEVLD (UniProt Q8IX04) 0.203
UFM1 isoform 2 (UniProt P61960) -0.13
USP22 (UniProt Q9UPT9) -0.066

Each target was assayed with CCCS(=O)(=O)Nc1ccc(F)c(C(=O)c2c[nH]c3ncc(Cl)cc23)c1F in the same assay as above.
Outline: as §1

log2 fold change, inactive:
USP54 (UniProt Q70EL1) 0.055
UBQLN3 (UniProt Q9H347) 0.033
USP46 (UniProt P62068) -0.084
UNK (UniProt Q9C0B0) -0.029
UMAD1 (UniProt C9J7I0) -0.141
UBR3 isoform 4 (UniProt Q6ZT12) -0.119
USB1 (UniProt Q9BQ65) -0.046
UTP20 (UniProt O75691) -0.086
UPP1 (UniProt Q16831) 0.091
UFM1 isoform 2 (UniProt P61960) 0.001
USP22 (UniProt Q9UPT9) 0.038

Each target was assayed with CCCc1cc(C)[nH]c(=O)c1CNC(=O)c1cc(-c2ccnc(N3CCN(C)CC3)c2)cc2c1cnn2C(C)C in the same assay as above.
Outline: as §1

log2 fold change, inactive:
UBTF (UniProt P17480) -0.293
UBR1 (UniProt Q8IWV7) 0.089
USP12 (UniProt O75317) 0.082
USP48 (UniProt Q86UV5) -0.232
USP54 (UniProt Q70EL1) -0.082
UBQLN1 isoform 2 (UniProt Q9UMX0) -0.087
UBQLN3 (UniProt Q9H347) -0.146
URM1 isoform 2 (UniProt Q9BTM9) 0.025
USP16 (UniProt Q9Y5T5) -0.005
VAV1 (UniProt P15498) -0.178
UNG (UniProt P13051) 0.071
UQCR11 (UniProt O14957) -0.067
VAMP3 (UniProt Q15836) 0.007
UNK (UniProt Q9C0B0) 0.04
UMAD1 (UniProt C9J7I0) -0.066
UEVLD (UniProt Q8IX04) -0.14
UFM1 isoform 2 (UniProt P61960) 0.127
UGP2 (UniProt C9JWG0) -0.011
USP22 (UniProt Q9UPT9) -0.012
